doi:10.1101/2023.01.10.523476 (bioRxiv, 2023)
These are yes or no findings as the source states them, for the method shown. Some results given as binding are weak or reduced against the parent protein; the word gives no strength. Tags and fused reporters may be left off the sequences shown.

Target: GspDβ secretin (ETEC H10407 strain) with hexahistidine tag (Enterotoxigenic E. coli (ETEC) H10407 strain) (UniProt E3PJ86)
Experiment: cryo-EM structure

B1: GspDβ secretin (ETEC H10407 strain) with hexahistidine tag (natural protein)
chain: EEATFTANFKDTDLKSFIETVGANLNKTIIMGPGVQGKVSIRTMTPLNERQYYQLFLNLLEAQGYAVVPMENDVLKVVKSSAAKVEPLPLVGEGSDNYAGDEMVTKVVPVRNVSVRELAPILRQMIDSAGSGNVVNYDPSNVIMLTGRASVVERLTEVIQRVDHAGNRTEEVIPLDNASASEIARVLESLTKNSGENQPATLKSQIVADERTNSVIVSGDPATRDKMRRLIRRLDSEMERSGNSQVFYLKYSKAEDLVDVLKQVSGTLTAAKEEAEGTVGSGREIVSIAASKHSNALIVTAPQDIMQSLQSVIEQLDIRRAQVHVEALIVEVAEGSNINFGVQWASKDAGLMQFANGTQIPIGTLGAAISQAKPQKGSTVISENGATTINPDTNGDLSTLAQLLSGFSGTAVGVVKGDWMALVQAVKNDSSSNVLSTPSITTLDNQEAFFMVGQDVPVLTGSTVGSNNSNPFNTVERKKVGIMLKVTPQINEGNAVQMVIEQEVSKVEGQTSLDVVFGERKLKTTVLANDGELIVLGGLMDDQAGESVAKVPLLGDIPLIGNLFKSTADKKEKRNLMVFIRPTILRDGMAADGVSQRKYNYMRAEQIYRDEQGLSLMPHTAQPVLPAQNQALPPEVRAFLNAGRTR
binding: binds
